The AC50 is the concentration giving half of the maximal activity seen.

In PubChem BioAssay AID1487 (National Center for Advancing Translational Sciences (NCATS), 2009) one finds AC50 data, which are given here for 50 molecules.

This is one part of the list. These are further read-outs of the screen, such as a control signal, another cell line or another target. No call is given for them. The list favours compounds with an active or inconclusive main result. Potencies come from curve fits of mixed quality, noted in brackets.

A short description of the assay: qHTS Assay for Modulators of Lamin A Splicing. To be noted: HeLa LMNA splicing GFP/RFP minigene ratio, 48 h. The essentials:
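S3 HeLa cells stably expressing lamin A-EGFP splicing minigene plus DsRed2, 600 cells/well, 48 h compound exposure at 37C. Laser-scanning cytometry; analysed as GFP (500-530 nm)/RFP (575-640 nm) total intensity ratio; 0.5% DMSO vehicle.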
In general terms: In qHTS, concentration-response curves come from the screen itself.

Setting [1] is: measured here: RFP viability control channel.
The mark [2] stands for this setting: measured here: GFP splicing reporter channel.

On to `COC(=O)n1c(=O)oc2cc(S(=O)(=O)N3CCCCC3)ccc21`, for which the half-maximal activity concentration (AC50) under setting [1] was 31.6 µM [rising, single point].

For the molecule `O=S(=O)(NCC(c1ccco1)N1CCN(c2ccccc2F)CC1)c1ccc(F)cc1` (stereo not given), under setting [1], the concentration at half-maximal activity (AC50) was 35.5 µM [rising, single point].

In the case of `COc1ccc(C(=O)CSc2ccc(-c3ccc(C)cc3)nn2)cc1`, the AC50 under setting [1] is 35.5 µM [rising, single point].

For `O=c1[nH]c(=O)n(-c2ccc(F)cc2)c2c1C(C(F)(F)F)(C(F)(F)F)N=C(c1ccc(F)cc1)N2`, the concentration at half-maximal activity (AC50) under setting [1] was 8.91 µM [rising, partial curve].

On to `c1ccc2cc(CSCc3nc4ccccc4[nH]3)ccc2c1`, for which the concentration at half-maximal activity (AC50) under setting [1] is 17.8 µM [rising, partial curve].

On to `Cc1nn2c(=O)cc(COC(=O)Cc3ccccc3)nc2s1`, for which the concentration at half-maximal activity (AC50) under setting [2] is 1.41 µM [rising, full curve, poor fit].

As to `O=C(O)CC1S/C(=N/N=C/c2ccc(-c3ccccc3[N+](=O)[O-])o2)NC1=O` (stereo not given), under setting [1], the AC50 is 12.6 µM [falling, partial curve, poor fit].

On to `COC(=O)C1=C(C)Nc2ncnn2C1c1ccc(OC(=O)c2ccccc2)cc1` (stereo not given), for which the AC50 under setting [2] was 35.5 µM [falling, single point] and the half-maximal activity concentration (AC50) under setting [1] is 35.5 µM [falling, single point].

As to `COc1ccc(NS(=O)(=O)c2ccc(NS(C)(=O)=O)cc2)cc1`, the half-maximal activity concentration (AC50) under setting [2] is 31.6 µM [rising, single point] and the AC50 under setting [1] was 31.6 µM [rising, single point].

For `CCN(C(=O)COC(=O)/C=C/c1nc2ccccc2s1)C1CCS(=O)(=O)C1` (stereo not given), the half-maximal activity concentration (AC50) under setting [1] was 8.91 µM [rising, partial curve].

Take `O=c1[nH]c2ccccc2nc1-c1cccs1`: the half-maximal activity concentration (AC50) was 0.501 µM [falling, full curve] under setting [2] and 0.501 µM [falling, full curve] under setting [1].

Turning to `Cc1sc2nc(C(C)C)nc(SCC(=O)NCc3ccco3)c2c1C`, the concentration at half-maximal activity (AC50) is, setting by setting: under setting [2], 15.8 µM [rising, single point]; under setting [1], 14.1 µM [rising, single point].

On to `CCc1ccc(CNC(=O)CN2C(=O)CSc3c2c(C)nn3-c2ccccc2)cc1`, for which the half-maximal activity concentration (AC50) by setting is: under setting [2], 0.00316 µM [falling, full curve, poor fit]; under setting [1], 0.00447 µM [falling, full curve, poor fit].

As to `CC(=O)c1cccc(S(=O)(=O)N2CCN(c3nc4cc(C)cc(C)c4cc3C#N)CC2)c1`, the half-maximal activity concentration (AC50) under setting [1] was 12.6 µM [rising, partial curve].

Turning to `COc1ccc(-c2c3c(cc(C)[n+]2[O-])oc2ccc(OC)cc23)cc1`, the AC50 under setting [2] was 14.1 µM [rising, single point] and the AC50 under setting [1] is 22.4 µM [rising, single point].

With `CCCSc1nsc(NC(=O)C(c2ccccc2)c2ccccc2)n1`, the concentration at half-maximal activity (AC50) under setting [2] was 22.4 µM [falling, single point] and the AC50 under setting [1] is 22.4 µM [falling, partial curve].

In the case of `CC(C)NC(=O)C1CCN(C2CCN(C(=O)C3=CCCC3)CC2)CC1`, the concentration at half-maximal activity (AC50) under setting [1] is 0.501 µM [falling, partial curve, poor fit].

As for `C[C@@H]1C(=O)NC2=Nc3cccc(Cl)c3CN21`, the AC50 by setting is: under setting [2], 0.00501 µM [falling, full curve, poor fit]; under setting [1], 0.00501 µM [falling, full curve, poor fit].

`COc1ccc(-c2csc(NC(=O)CSc3nc(C)nc4sc(C(=O)O)c(C)c34)n2)cc1`: under setting [2], the AC50 is 12.6 µM [rising, partial curve, poor fit].

`O=C(/C=C/c1cccs1)c1cc(Cl)ccc1O`: the AC50 runs as follows: under setting [2], 35.5 µM [falling, single point]; under setting [1], 14.1 µM [falling, partial curve, poor fit].

Consider `COC(=O)[C@@]1(Cc2ccc(F)cc2)[C@H]2c3cc(C(=O)N4CCCC4)n(Cc4ccc(C(F)(F)F)nc4)c3C[C@H]2CN1C(=O)c1ccccc1`, for which the AC50 by setting is: under setting [2], 11.2 µM [rising, single point]; under setting [1], 14.1 µM [rising, single point].

For `COC(=O)N/N=C/c1ccc([N+](=O)[O-])s1`, the AC50 is, setting by setting: under setting [2], 31.6 µM [rising, single point]; under setting [1], 31.6 µM [rising, single point].

Regarding `O=C(NCCc1ccccc1)C1CCC(Cn2c(=O)c3ccccc3n(Cc3cccnc3)c2=O)CC1` (stereo not given), the concentration at half-maximal activity (AC50) was 2.82 µM [rising, partial curve, poor fit] under setting [2] and 14.1 µM [rising, partial curve, poor fit] under setting [1].

With `Cn1c(N2CCN(C(=O)Nc3ccc(C(F)(F)F)cc3)CC2)nc2ccccc21`, under setting [1], the AC50 was 25.1 µM [rising, single point].

For the molecule `COc1cc(/C=C2/CCC/C(=C\c3cc(O)c(OC)c(Cl)c3)C2=O)cc(Cl)c1O`, the concentration at half-maximal activity (AC50) reads like this: under setting [2], 10 µM [falling, partial curve]; under setting [1], 7.08 µM [falling, full curve].

Turning to `CC(NC(=O)Cn1ccsc1=N)C12CC3CC(CC(C3)C1)C2` (stereo not given), the half-maximal activity concentration (AC50) under setting [1] is 7.94 µM [rising, partial curve, poor fit].

Take `COc1cc(/C=N/Nc2snc(SC)c2C#N)ccc1O`: the AC50 under setting [1] was 2.51 µM [falling, single point].

As for `O=C(Nc1ccc2c(c1)N(Cc1ccccc1)C(=O)c1ccccc1S2)NC1CC1`, the AC50 is, setting by setting: under setting [2], 35.5 µM [rising, single point]; under setting [1], 25.1 µM [rising, single point].

For the molecule `Oc1c(CN2CCN(c3ccc(F)cc3)CC2)cc(Cl)c2cccnc12`, the AC50 under setting [1] was 15.8 µM [rising, partial curve].

On to `O=C(NC1CC(=O)N(c2ccccc2)C1)c1ccc(S(=O)(=O)N2CCCCC2)cc1` (stereo not given), for which the AC50 reads like this: under setting [2], 0.00447 µM [falling, full curve, poor fit]; under setting [1], 0.00794 µM [falling, full curve, poor fit].

As to `CCC1CCCCN1S(=O)(=O)c1ccc(NC(=O)c2cccs2)cc1` (stereo not given), the concentration at half-maximal activity (AC50) under setting [1] was 15.8 µM [rising, single point].

In the case of `O=C(Nc1ccc(NC(=O)c2sc3ccccc3c2Cl)cc1Cl)c1ccco1`, the concentration at half-maximal activity (AC50) is 17.8 µM [falling, single point] under setting [2] and 35.5 µM [falling, single point] under setting [1].

Turning to `CN1Cc2c(N)cccc2[C@H](c2ccccc2)C1`, the AC50 runs as follows: under setting [2], 7.94 µM [falling, partial curve, poor fit]; under setting [1], 12.6 µM [falling, single point].

For `Cc1ccc2c(c1)c(Sc1ccccc1)c(CC(=O)O)n2C`, the concentration at half-maximal activity (AC50) was 4.47 µM [rising, partial curve] under setting [2] and 3.16 µM [rising, partial curve] under setting [1].

With `COc1cccc2c1C(=O)c1c(O)c3c(c(O)c1C2=O)C[C@](O)(C(=O)CO)C[C@H]3O[C@@H]1C[C@H](N)[C@H](O)[C@H](C)O1`, the AC50 was 1 µM [falling, partial curve] under setting [2] and 1.12 µM [falling, full curve] under setting [1].

Take `CCN(C(=O)CSc1nnc(-c2ccc(F)cc2)c2ccccc12)C1CCS(=O)(=O)C1` (stereo not given): the AC50 under setting [2] was 0.562 µM [falling, full curve, poor fit].

With `Cc1ccc(N2CCN(C(=O)c3cnc(N4CCCCC4)c4ccccc34)CC2)c(C)c1`, the AC50 runs as follows: under setting [2], 0.0562 µM [falling, full curve, poor fit]; under setting [1], 0.0562 µM [falling, full curve, poor fit].

For the molecule `COc1ccc(S(=O)(=O)Nc2ccc(S(=O)(=O)Nc3ccc(F)cc3)cc2)cc1C`, under setting [1], the AC50 is 10 µM [rising, single point].

On to `COc1ccc(CN(C)CC(=O)Nc2cc(OC)c([N+](=O)[O-])cc2C)c(OC)c1`, for which the AC50 reads like this: under setting [2], 3.98 µM [rising, partial curve]; under setting [1], 7.94 µM [rising, partial curve, poor fit].

Take `CC(=O)c1sc(Nc2ccccn2)nc1C`: the AC50 by setting is: under setting [2], 25.1 µM [falling, single point]; under setting [1], 20 µM [falling, partial curve, poor fit].

For the molecule `CC(C)(CO)NC(=O)CC1C(=O)NCCN1CC(c1ccccc1)c1ccccc1` (stereo not given), under setting [2], the concentration at half-maximal activity (AC50) was 0.562 µM [rising, full curve].

Turning to `CCC(C(=O)N1CCN(c2ccccc2OC)CC1)c1ccccc1` (stereo not given), the AC50 is, setting by setting: under setting [2], 11.2 µM [rising, single point]; under setting [1], 14.1 µM [rising, single point].

With `CN(C)c1ccc(/C(=N\O)C(F)(F)F)cc1`, the AC50 under setting [2] was 35.5 µM [rising, single point].

`C[C@@H]1OC(OC2CC[C@@]3(C)C(CC[C@@]4(C)C3CC=C3C5CC(C)(C)CC[C@]5(C(=O)OC5OCC(O)[C@@H](O)[C@@H]5OC5O[C@@H](C)[C@H](O[C@H]6OC(CO)C(O)C(O)C6O)C(O)C5O)C(O)C[C@@]34C)C2(C)C)C(O)C(O)[C@H]1OC1OCC(O)C(O)[C@H]1O` (stereo not given in full): the concentration at half-maximal activity (AC50) runs as follows: under setting [2], 35.5 µM [falling, single point]; under setting [1], 35.5 µM [falling, single point].

On to `Cc1cc(Sc2ncnc(N)c2[N+](=O)[O-])ncn1`, for which the concentration at half-maximal activity (AC50) under setting [2] is 7.94 µM [falling, partial curve] and the half-maximal activity concentration (AC50) under setting [1] was 17.8 µM [falling, partial curve].

As to `CC(C)C(=O)Nc1cccc(C(=O)Nc2ccc3c(c2)OCO3)c1`, the AC50 under setting [1] is 7.94 µM [rising, partial curve].

Consider `CCCCCCCCNc1ncnc2ccccc12`, for which the concentration at half-maximal activity (AC50) under setting [1] was 0.251 µM [rising, full curve].

As for `CC(C)CNC(=O)CN(C1CCCCC1)S(C)(=O)=O`, under setting [1], the concentration at half-maximal activity (AC50) is 0.562 µM [rising, full curve, poor fit].

For the molecule `CC1CCCN(C2=C(NS(=O)(=O)c3ccc(Cl)cc3)C(=O)c3ccccc3C2=O)C1` (stereo not given), the AC50 under setting [1] is 0.0126 µM [falling, full curve, poor fit].

Take `Cc1ccc(C2c3[nH]c4ccccc4c3CCN2C(=O)c2ccccc2Br)cc1` (stereo not given): the half-maximal activity concentration (AC50) under setting [1] was 35.5 µM [rising, partial curve].
